From publication PMC7337520
The exact form of at least one protein or probe is not confirmed. A weaker result is weaker than the reference pair of the same experiment.

Tested on: NF90
Test: EMSA
Conditions: pH and temperature not given, at least three replicates, recombinant protein, label: radiolabel
[1] = relative to pri-miR-200a, probe letters rebuilt from the primers and the genome, part of a longer molecule

Sequence	binding result [1]	binding result (not highly associated)
AGAGAUGAGGAAGGUUAUGGCUGAGGAACUGGCAUCUAUGAAAGCCAGAUUCAGCUUUCCCUUCAGAGCCUGGCUUUGGCAUCUAUGAAAGCCAGGCUCUGAAGGGAAAGUUGAAUCUUGCUAGAGUGGAGAAUUGAGGAAGAGAUGAGAUGUUAAGGCAAGCCGAGUCUAUGAGGUUUGGGCCA [pri-miR-4755]	binds	–
CCCUUCUACCUUUCUGAAGCUCCUUCUGAAAGAGCAGUUGGUGUUUAUUUUUUACUAAAUAGCAAUUGCUCUUUUGGAAGGAACUUGAGAAGACAUUACUCCUUUUAGGGCCCUAAAAUUAACAGUGGUUUCUACUACUAACAGAUACUAUAGCUAUAAAGGACAUGUAGAAACCAACAAUUGUUGAGUGCCACCUGUGUG [pri-miR-4766]	binds	–
CUGGCUGCUCACCGCUCCGGUUCUUCCCUGGGCUUCCACAGCAGCCCCUGCCUGCCUGGCGGGACCCCACGUCCCUCCCGGGCCCCUGUGAGCAUCUUACCGGACAGUGCUGGAUUUCCCAGCUUGACUCUAACACUGUCUGGUAACGAUGUUCAAAGGUGACCCGCCGCUCGCCGGGGACACCACCGAGGCACAUC [pri-miR-200a WT]	–	binds more weakly
